Data on one molecule can be found in paper PMC11494200.

For the test, the target named is T1, ABCG2-FLAG (ATP Binding Cassette Subfamily G Member 2, plasmid ABCG2-3FLAG) (UniProt Q9UNQ0).
T1 sequence: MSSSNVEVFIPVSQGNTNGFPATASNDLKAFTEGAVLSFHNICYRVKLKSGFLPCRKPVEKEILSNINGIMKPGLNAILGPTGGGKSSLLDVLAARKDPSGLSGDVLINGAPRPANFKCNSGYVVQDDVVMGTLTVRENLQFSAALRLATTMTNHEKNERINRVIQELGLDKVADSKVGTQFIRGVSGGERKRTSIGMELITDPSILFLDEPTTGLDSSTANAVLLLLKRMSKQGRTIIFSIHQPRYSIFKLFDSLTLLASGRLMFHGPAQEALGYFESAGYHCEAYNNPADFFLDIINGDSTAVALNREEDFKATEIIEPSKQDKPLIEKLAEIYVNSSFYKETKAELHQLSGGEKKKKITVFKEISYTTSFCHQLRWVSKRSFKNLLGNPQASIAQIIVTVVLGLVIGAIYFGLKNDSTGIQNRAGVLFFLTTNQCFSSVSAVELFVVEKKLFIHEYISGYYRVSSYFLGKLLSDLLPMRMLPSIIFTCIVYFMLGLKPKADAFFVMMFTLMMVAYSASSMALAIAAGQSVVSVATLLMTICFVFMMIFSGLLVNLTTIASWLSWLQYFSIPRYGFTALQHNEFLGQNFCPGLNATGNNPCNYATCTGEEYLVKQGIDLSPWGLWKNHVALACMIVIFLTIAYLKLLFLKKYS
Kind of test: co-IP; HEK293 lysate (1% TritonX-100, 10 mM HEPES pH 7.4, 142.5 mM KCl, 5 mM MgCl2, 1 mM EDTA, 10% glycerol); FLAG tag antibody and Protein G Sepharose beads overnight at 4 °C; immunoblot. On the technique in general: Immunoblotting shows a protein as a band on a membrane.

No constants are given. Whether binding was seen depends on the method and setting. In cells and extracts the contact can be indirect. Some entries that bind do so weakly or less than the wild type. Tags and fused reporters may be left off the sequences shown.

B1: endogenous NUMB protein (HEK293) (protein, UniProt P49757 1-651)
chain: MNKLRQSFRRKKDVYVPEASRPHQWQTDEEGVRTGKCSFPVKYLGHVEVDESRGMHICEDAVKRLKAERKFFKGFFGKTGKKAVKAVLWVSADGLRVVDEKTKDLIVDQTIEKVSFCAPDRNFDRAFSYICRDGTTRRWICHCFMAVKDTGERLSHAVGCAFAACLERKQKREKECGVTATFDASRTTFTREGSFRVTTATEQAEREEIMKQMQDAKKAETDKIVVGSSVAPGNTAPSPSSPTSPTSDATTSLEMNNPHAIPRRHAPIEQLARQGSFRGFPALSQKMSPFKRQLSLRINELPSTMQRKTDFPIKNAVPEVEGEAESISSLCSQITNAFSTPEDPFSSAPMTKPVTVVAPQSPTFQANGTDSAFHVLAKPAHTALAPVAMPVRETNPWAHAPDAANKEIAATCSGTEWGQSSGAASPGLFQAGHRRTPSEADRWLEEVSKSVRAQQPQASAAPLQPVLQPPPPTAISQPASPFQGNAFLTSQPVPVGVVPALQPAFVPAQSYPVANGMPYPAPNVPVVGITPSQMVANVFGTAGHPQAAHPHQSPSLVRQQTFPHYEASSATTSPFFKPPAQHLNGSAAFNGVDDGRLASADRHTEVPTGTCPVDPFEAQWAALENKSKQRTNPSPTNPFSSDLQKTFEIEL
Regarding B1, the binding result is “binds”.
